Structures can show the parent of a compound that is named as a salt. Some of these results come from one statement about several compounds together. At least one compound was matched to its structure with a doubt left.
These molecules were tested against novel receptor obtainable from rat forebrain tissue (assay: Radioligand binding assay with [3H]-Compound A on rat forebrain tissue). Settings: competition with [3H]-Compound A (usually 20 nM), rat whole forebrain tissue, room temperature, 1 hour.

pKi, greater than 8:
CC(C)c1ccc(C(=O)Nc2cnc3c(c2)CN(C)CC3(C)C)cc1C#N.Cl [Example 2, N-(5,6,7,8-Tetrahydro-6,8,8-trimethyl[1,6]naphthyridin-3-yl)-3-cyano-4-iso-propylbenzamide Hydrochloride]
COc1ccc(C(=O)Nc2cnc3c(c2)CN(C)CC3(C)C)cc1C(F)(F)F.Cl [Example 3, N-(5,6,7,8-Tetrahydro-6,8,8-trimethyl[1,6]naphthyridin-3-yl)-4-methoxy-3-trifluoromethylbenzamide Hydrochloride]
CCc1ccc(C(=O)Nc2cnc3c(c2)CN(C)CC3(C)C)cc1Br.Cl [Example 4, N-(5,6,7,8-Tetrahydro-6,8,8-trimethyl[1,6]naphthyridin-3-yl)-3-bromo-4-ethylbenzamide Hydrochloride]
CCOc1ccc(C(=O)Nc2cnc3c(c2)CN(C)CC3(C)C)cc1Br.Cl [Example 5, N-(5,6,7,8-Tetrahydro-6,8,8-trimethyl[1,6]naphthyridin-3-yl)-3-bromo-4-ethoxybenzamide Hydrochloride]
CC(C)Oc1ccc(C(=O)Nc2cnc3c(c2)CN(C)CC3(C)C)cc1Cl.Cl [Example 6, N-(5,6,7,8-Tetrahydro-6,8,8-trimethyl [1,6]naphthyridin-3-yl)-3-chloro-4-iso-propyloxybenzamide Hydrochloride]
CC(C)Oc1ccc(C(=O)Nc2cnc3c(c2)CN(C)CC3(C)C)cc1Br [Example 7, N-(5,6,7,8-Tetrahydro-6,8,8-trimethyl[1,6]naphthridin-3-yl)-3-bromo-4-iso-propyloxybenzamide Hydrochloride]
CC(=O)c1cc(C(=O)Nc2cnc3c(c2)CN(C)CC3(C)C)ccc1OC(C)C [Example 8, N-(5,6,7,8-Tetrahydro-6,8,8-trimethyl[1,6]naphthnridin-3-yl)-3-acetyl-4-iso-propyloxybenzamide Hydrochloride]
CCOc1ccc(C(=O)Nc2cnc3c(c2)CN(C)CC3(C)C)cc1C(F)(F)F.Cl.Cl [Example 9, N-(5,6,7,8-Tetrahydro-6,8,8-trimethyl[1,6]naphthyridin-3-yl)-4-ethoxy-3-trifluoromethylbenzamide Dihydrochloride]
COc1ccc(C(=O)Nc2cnc3c(c2)CNCC3(C)C)cc1C(F)(F)F [Example 10, N-(8,8-Dimethyl-5,6,7,8-tetrahydro[1,6]naphthyridin-3-yl)-4-methoxy-3-trifluoromethylbenzamide Hydrochloride]
COc1ccc(C(=O)Nc2cnc3c(c2)CN(C)CC3(C)C)cc1Br.Cl [Example 11, N-(5,6,7,8-Tetrahydro-6,8,8-trimethyl[1,6]naphthyridin-3-yl)-3-bromo-4-methoxybenzamide Hydrochloride]
CCC(=O)c1cc(C(=O)Nc2cnc3c(c2)CN(C)CC3(C)C)ccc1OC [Example 25, N-(5,6,7,8-Tetrahydro-6,8,8-trimethyl[1,6]naphthyridin-3-yl)-4-methoxy-3-n-propionylbenzamide Hydrochloride]
COc1ccc(C(=O)Nc2cnc3c(c2)CN(C)CC3(C)C)cc1C(=O)C(C)C [Example 26, N-(5,6,7,8-Tetrahydro-6,8,8-trimethyl[1,6]naphthyridin-3-yl-iso-butyroyl-4-methoxybenzamide Hydrochloride]
CCOc1ccc(C(=O)Nc2cnc3c(c2)CNCC3(C)C)cc1C(F)(F)F [Example 27, N-(8,8-Dimethyl-5,6,7,8-tetrahydro[1,6]naphthyridin-3-yl)-4-ethoxy-3-trifluoromethylbenzamide Hydrochloride]
CC(=O)c1cc(C(=O)Nc2cnc3c(c2)CNCC3(C)C)ccc1OC(C)C.Cl [Example 28, N-(8,8-Dimethyl-5,6,7,8-tetrahydro[1,6]naphthyridin-3-yl)-3-acetyl-4-iso-propyloxybenzamide Hydrochloride]
COc1ccc(C(=O)Nc2cnc3c(c2)CNCC3(C)C)cc1Br.Cl [Example 29, N-(8,8-Dimethyl-5,6,7,8-tetrahydro[1,6]naphthyridin-3-yl)-3-bromo-4-methoxybenzamide Hydrochloride]
COc1ccc(C(=O)Nc2cnc3c(c2)CNCC3(C)C)cc1Cl [Example 30, N-(8,8-Dimethyl-5,6,7,8-tetrahydrof[1,6]naphthyridin-3-yl)-3-chloro-4-methoxybenzamide Hydrochloride]
COc1ccc(C(=O)Nc2cnc3c(c2)CNCC3(C)C)cc1C(F)(F)C(F)(F)F [Example 31, N-(8,8-Dimethyl-5,6,7,8-tetrahydro[1,6]naphthyridin-3-yl)-4-methoxy-3-pentafluoroethylbenzamide]
CC(C)Oc1ccc(C(=O)Nc2cnc3c(c2)CNCC3(C)C)cc1C(F)(F)F [Example 32, N-(8,8-Dimethyl-5,6,7,8-tetrahydro[1,6]naphthyridin-3-yl)-4-iso-propoxy-3-trifluoromethylbenzamide]
CCc1ccc(C(=O)Nc2cnc3c(c2)CNCC3(C)C)cc1C(F)(F)F [Example 33, N-(8,8-Dimethyl-5,6,7,8-tetrahydro[1,6]naphthyridin-3-yl)-4-ethyl-3-trifluoromethylbenzamide]
CC(C)c1ccc(C(=O)Nc2cnc3c(c2)CNCC3(C)C)cc1Br [Example 34, N-(8,8-Dimethyl-5,6,7,8-tetrahydro[1,6]naphthyridin-3-yl)-3-bromo-4-iso-propylbenzamide]
